In paper PMC8522838:
Results are given in words; binding and its absence hold for the method and conditions named. Binding seen in cells or lysates may run through a third protein. Some entries that bind do so weakly or less than the wild type.

The chains behind the UniProt entries cited, without tags or fusion partners. Where a name states a change or a piece, a line headed by the entry shows the natural chain unless it says otherwise. A line that says so, or that is headed by a name, gives the form on record, which may keep a tag or linker. Residues count along the entry.
UniProt P01106: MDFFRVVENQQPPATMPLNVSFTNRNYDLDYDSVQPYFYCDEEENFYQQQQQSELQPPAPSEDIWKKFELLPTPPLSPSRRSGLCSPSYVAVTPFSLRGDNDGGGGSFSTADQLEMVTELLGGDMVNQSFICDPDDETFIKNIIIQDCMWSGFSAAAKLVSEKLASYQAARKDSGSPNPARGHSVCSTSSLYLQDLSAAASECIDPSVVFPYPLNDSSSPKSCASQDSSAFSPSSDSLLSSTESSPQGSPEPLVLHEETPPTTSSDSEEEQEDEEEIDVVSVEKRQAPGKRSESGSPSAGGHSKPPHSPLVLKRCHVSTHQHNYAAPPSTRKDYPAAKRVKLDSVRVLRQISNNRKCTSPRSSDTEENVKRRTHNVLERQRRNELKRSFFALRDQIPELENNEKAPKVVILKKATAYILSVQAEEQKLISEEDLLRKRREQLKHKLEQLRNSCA
endogenous MYC (human (endogenous in HEK293T)): residues 16-454 of P01106
SmBiT-MYC 1-190: residues 16-205 of P01106
SmBiT-MYC 1-190 F138A (P01106-1, form named): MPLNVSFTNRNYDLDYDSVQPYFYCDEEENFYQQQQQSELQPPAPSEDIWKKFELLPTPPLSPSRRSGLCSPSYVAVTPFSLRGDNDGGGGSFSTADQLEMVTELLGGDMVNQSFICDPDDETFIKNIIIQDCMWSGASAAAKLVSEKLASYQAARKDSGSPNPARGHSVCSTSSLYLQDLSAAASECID
SmBiT-MYC 1-190 M134A (P01106-1, form named): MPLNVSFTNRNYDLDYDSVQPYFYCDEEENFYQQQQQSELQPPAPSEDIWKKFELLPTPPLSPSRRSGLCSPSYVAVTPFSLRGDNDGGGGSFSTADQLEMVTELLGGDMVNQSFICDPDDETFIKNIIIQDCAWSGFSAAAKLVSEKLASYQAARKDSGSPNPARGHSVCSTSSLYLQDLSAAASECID
SmBiT-MYC 1-190 S136A (P01106-1, form named): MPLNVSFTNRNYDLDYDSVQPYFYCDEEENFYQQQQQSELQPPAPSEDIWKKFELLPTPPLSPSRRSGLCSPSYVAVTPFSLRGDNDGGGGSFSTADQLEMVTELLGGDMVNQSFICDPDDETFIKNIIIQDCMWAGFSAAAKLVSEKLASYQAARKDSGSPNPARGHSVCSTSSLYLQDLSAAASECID
SmBiT-MYC 1-190 T58I (P01106-1, form named): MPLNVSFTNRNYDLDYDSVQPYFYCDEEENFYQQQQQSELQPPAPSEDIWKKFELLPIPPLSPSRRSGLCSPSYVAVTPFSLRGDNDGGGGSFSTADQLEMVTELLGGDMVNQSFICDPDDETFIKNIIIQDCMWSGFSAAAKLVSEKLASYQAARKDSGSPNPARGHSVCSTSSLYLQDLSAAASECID
SmBiT-MYC 1-190 W135A (P01106-1, form named): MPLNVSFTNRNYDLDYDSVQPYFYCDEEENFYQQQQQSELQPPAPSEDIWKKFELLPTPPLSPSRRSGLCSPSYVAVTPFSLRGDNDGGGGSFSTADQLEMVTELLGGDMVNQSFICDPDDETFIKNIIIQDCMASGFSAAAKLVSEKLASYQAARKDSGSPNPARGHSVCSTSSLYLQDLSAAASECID
UniProt Q9Y4A5: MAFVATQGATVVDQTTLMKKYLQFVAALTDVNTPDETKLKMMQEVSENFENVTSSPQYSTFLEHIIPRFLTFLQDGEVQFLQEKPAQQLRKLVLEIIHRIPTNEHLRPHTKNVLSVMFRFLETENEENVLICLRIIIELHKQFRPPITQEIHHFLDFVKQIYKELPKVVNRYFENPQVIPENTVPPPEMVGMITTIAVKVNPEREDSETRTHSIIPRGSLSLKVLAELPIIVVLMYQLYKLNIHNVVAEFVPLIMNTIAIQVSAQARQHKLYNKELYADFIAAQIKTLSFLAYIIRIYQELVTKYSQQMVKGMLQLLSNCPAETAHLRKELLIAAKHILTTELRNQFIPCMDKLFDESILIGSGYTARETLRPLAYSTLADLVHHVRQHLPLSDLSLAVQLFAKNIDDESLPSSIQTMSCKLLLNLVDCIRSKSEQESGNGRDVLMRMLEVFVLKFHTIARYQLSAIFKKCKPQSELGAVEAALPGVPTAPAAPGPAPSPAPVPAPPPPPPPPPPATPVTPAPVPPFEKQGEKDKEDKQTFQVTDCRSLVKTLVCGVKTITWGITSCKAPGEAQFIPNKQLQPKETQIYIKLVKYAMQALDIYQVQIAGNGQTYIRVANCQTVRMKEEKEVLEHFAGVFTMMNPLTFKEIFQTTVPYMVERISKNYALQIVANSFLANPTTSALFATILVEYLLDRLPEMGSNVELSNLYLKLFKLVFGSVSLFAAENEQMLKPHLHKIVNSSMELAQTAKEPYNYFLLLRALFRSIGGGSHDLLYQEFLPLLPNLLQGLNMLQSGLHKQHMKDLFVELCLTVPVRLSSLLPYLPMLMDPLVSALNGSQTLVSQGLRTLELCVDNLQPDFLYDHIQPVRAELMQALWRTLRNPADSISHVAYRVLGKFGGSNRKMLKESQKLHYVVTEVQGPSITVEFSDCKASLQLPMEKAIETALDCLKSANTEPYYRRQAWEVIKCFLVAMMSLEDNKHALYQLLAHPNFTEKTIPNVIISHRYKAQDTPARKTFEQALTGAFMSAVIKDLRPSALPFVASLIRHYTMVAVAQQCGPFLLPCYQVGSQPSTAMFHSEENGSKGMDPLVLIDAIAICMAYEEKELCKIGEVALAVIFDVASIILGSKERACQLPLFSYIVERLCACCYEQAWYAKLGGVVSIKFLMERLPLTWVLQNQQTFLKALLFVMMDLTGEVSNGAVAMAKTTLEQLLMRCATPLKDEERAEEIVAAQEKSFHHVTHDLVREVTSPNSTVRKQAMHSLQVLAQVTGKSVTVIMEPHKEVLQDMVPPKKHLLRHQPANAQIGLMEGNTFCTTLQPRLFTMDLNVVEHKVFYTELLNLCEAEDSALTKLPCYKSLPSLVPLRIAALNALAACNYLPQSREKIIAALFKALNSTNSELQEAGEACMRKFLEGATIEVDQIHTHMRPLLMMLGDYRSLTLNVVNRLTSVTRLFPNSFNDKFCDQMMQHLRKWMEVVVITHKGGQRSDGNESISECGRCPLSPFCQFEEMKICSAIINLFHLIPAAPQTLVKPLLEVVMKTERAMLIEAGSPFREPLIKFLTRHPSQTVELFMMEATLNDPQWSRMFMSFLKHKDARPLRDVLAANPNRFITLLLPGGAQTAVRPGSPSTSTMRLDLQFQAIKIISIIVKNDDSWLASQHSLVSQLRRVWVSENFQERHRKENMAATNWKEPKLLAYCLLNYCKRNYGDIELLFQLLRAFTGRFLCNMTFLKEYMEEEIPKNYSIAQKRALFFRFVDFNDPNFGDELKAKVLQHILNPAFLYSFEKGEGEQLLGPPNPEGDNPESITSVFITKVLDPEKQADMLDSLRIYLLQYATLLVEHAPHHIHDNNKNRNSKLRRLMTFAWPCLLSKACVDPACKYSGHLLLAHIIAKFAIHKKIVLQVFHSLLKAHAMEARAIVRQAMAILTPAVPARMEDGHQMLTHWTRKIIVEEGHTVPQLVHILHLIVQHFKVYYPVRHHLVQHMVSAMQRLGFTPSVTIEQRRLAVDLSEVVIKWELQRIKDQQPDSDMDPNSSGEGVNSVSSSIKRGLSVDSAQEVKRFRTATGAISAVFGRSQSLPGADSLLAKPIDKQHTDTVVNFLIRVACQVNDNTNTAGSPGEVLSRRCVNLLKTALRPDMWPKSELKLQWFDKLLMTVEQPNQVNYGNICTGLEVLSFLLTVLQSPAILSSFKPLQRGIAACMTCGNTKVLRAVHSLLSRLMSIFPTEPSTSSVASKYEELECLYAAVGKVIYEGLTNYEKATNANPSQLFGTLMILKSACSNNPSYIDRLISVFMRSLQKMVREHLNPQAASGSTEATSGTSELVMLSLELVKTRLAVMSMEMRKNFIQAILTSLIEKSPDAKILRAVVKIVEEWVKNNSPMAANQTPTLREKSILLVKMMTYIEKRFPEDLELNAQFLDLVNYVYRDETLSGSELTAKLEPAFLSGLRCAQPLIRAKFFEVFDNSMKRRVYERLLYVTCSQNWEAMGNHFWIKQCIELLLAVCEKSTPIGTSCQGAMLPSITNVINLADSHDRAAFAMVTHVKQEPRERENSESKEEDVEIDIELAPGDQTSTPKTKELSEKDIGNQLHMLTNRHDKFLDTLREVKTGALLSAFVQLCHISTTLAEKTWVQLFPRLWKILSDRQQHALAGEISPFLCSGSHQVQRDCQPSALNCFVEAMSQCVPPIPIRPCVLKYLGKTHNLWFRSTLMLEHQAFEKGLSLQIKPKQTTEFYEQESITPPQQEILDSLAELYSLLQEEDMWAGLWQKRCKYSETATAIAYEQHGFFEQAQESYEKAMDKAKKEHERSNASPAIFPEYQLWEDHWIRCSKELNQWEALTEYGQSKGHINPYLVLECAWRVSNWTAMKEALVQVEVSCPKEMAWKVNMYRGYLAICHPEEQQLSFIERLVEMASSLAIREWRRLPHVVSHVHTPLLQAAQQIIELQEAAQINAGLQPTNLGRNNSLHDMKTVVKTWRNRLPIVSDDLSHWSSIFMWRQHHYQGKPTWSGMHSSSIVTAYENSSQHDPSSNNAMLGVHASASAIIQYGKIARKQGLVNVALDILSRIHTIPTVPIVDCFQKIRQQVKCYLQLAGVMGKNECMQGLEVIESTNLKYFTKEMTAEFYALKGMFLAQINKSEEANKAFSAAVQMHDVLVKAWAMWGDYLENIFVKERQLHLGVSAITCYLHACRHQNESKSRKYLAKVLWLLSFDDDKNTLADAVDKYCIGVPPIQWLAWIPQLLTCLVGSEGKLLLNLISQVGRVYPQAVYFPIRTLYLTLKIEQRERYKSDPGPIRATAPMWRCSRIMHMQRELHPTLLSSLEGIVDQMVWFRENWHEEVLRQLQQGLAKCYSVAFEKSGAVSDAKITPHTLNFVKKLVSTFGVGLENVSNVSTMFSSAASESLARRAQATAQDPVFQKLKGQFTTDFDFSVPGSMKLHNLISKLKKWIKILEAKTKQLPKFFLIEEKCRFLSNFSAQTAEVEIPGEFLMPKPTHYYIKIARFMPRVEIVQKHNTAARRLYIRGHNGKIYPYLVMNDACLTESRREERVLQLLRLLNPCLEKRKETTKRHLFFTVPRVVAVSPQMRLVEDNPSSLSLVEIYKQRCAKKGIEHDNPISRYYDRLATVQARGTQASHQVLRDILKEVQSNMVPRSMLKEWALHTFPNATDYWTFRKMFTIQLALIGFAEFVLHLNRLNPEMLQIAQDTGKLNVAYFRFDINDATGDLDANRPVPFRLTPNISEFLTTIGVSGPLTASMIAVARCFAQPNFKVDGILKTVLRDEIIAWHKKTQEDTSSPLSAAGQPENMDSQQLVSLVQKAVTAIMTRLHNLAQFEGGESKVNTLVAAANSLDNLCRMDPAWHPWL
TRRAP 2033-2283-LgBiT: residues 2033-2283 of Q9Y4A5

Legend:
[1] = target: endogenous MYC (human (endogenous in HEK293T)) (UniProt P01106); test: co-IP; HEK293T cells transfected with FLAG-tagged TRRAP regions; endogenous MYC IP'd with C-33 beads; TRRAP and FLAG blots; competition with the native complex
[2] = target: PYO-tagged full-length MYC (human) (UniProt P01106); test: co-IP; HEK293T cells co-transfected with FLAG-tagged TRRAP regions and PYO-tagged full-length MYC; MYC IP'd with anti-PYO beads at 4°C for 16–20 h; western blot with anti-FLAG
[3] = target: PYO-tagged full-length MYC (human) (UniProt P01106); test: co-IP; Expi293F cells co-transfected with PYO-tagged full-length MYC (or mutants) and FLAG-tagged full-length TRRAP; MYC IP'd with anti-PYO beads
[4] = target: TRRAP 2033-2283-LgBiT (UniProt Q9Y4A5); test: split reporter; NanoBiT luminescence complementation in cellular extracts of transfected Expi293F cells (F-buffer with 100 μg/mL Digitonin), protein concentration normalised
[5] = target: TRRAP 2033-2283-LgBiT (UniProt Q9Y4A5); test: split reporter; NanoBiT luminescence complementation in live transfected Expi293F cells, 96-well plates, 48 hours after transfection; for the point mutants normalised to MYC expression

| Substance | binding [5] | further results |
| --- | --- | --- |
| FLAG-tagged TRRAP 2033-2283 (from UniProt Q9Y4A5 2033-2283) (domain or fragment) | – | binding [1]: binds; binding [2]: binds |
| FLAG-tagged full-length TRRAP (from UniProt Q9Y4A5 1-3859) | – | binding [3]: binds |
| SmBiT-MYC 1-190 (from UniProt P01106-1 1-190) (domain or fragment) | binds | binding [4]: binds |
| SmBiT-MYC 1-190 F138A (from UniProt P01106-1 1-190) (domain or fragment) | binds | – |
| SmBiT-MYC 1-190 T58I (from UniProt P01106-1 1-190) (domain or fragment) | binds | – |
| endogenous TRRAP (from UniProt Q9Y4A5 1-3859) | – | binding [1]: binds |

More lines, main results first:

| binding [5] | Substance | further results |
| --- | --- | --- |
| binds | SmBiT-MYC 1-190 M134A (from UniProt P01106-1 1-190) (domain or fragment) | – |
| binds | SmBiT-MYC 1-190 S136A (from UniProt P01106-1 1-190) (domain or fragment) | – |
| binds | SmBiT-MYC 1-190 W135A (from UniProt P01106-1 1-190) (domain or fragment) | – |
